The values that follow come from patent publication US8530475B2, “Bridged aryl piperazines derivatives useful for the treatment of CNS, GI-urinary and reproductive disorders” (Janssen Pharmaceutica NV, priority 2006, dated 2013).

The chains behind the UniProt entries cited, without tags or fusion partners.
UniProt P08908, whole entry: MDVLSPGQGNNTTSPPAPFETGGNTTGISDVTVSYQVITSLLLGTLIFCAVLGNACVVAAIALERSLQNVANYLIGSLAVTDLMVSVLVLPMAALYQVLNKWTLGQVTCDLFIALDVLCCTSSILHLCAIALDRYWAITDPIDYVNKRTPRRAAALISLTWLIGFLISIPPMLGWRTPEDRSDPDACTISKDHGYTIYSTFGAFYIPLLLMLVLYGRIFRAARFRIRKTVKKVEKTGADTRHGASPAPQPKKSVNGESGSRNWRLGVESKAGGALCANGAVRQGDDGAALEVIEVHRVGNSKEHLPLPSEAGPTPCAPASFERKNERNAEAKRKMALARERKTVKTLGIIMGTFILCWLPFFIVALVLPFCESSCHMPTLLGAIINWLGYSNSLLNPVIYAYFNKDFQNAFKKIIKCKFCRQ

The structures appear in SMILES notation. Some entries of the source have several records that differ or are many. The other results are left out here. An entry can have further records. Values given together differ, and nothing given here explains why; dose, time, organism, isomer or construct need not be as stated for each record.

For this assay, the target named is human 5HT1A receptor (Homo sapiens, UniProt P08908). Description: [35S]GTPγS binding for 5-HT1A receptor inhibition (antagonist mode). Conditions: Example 78, HEK293 membranes, antagonist mode with serotonin 100 nM, <5 = not active at up to 10 μM. As to the method: Compounds showing affinity at the 5-HT1A receptor were tested for functional agonism and antagonism in a [^35S]GTPγS (guanine triphosphate (non-hydrolysable, labelled with ^35S) binding assay on membranes of HEK293 cells permanently transfected with human 5HT1A receptor (Perkin Elmer, USA).
Frozen membranes were thawed, briefly homogenized and were diluted in incubation buffer, 100 mM NaCl, 0.3 mM MgCl2 and 10 μM guanine diphosphate (GDP), pH 7.4-7.5) supplemented with 10 μg/ml saponin. Assay mixtures contained 10 μg of membrane protein and test compound, buffer, or control agonist (serotonin, 10 μM). For the antagonistic assay, control agonist was present in all wells containing compound at a sub-maximal concentration (serotonin, 100 nM). After 20 minutes pre-incubation at 37° C., [^35S]GTPγS was added to a final concentration of 0.25 nM, briefly shaken and further incubated for another 20 minutes. Reactions were terminated by rapid vacuum filtration through GF/B unifilter plates using a Packard Harvester. Filters were washed three times with wash buffer (10 mM NaH2PO4, 10 mM Na2HPO4, pH 7.4), dried overnight and bound counts were measured in a Topcount Scintillation Counter in the presence of Microscint O. % Specific Binding was calculated and curves were plotted with help of in house software where pIC50 values were determined and Kb values were calculated.
Background: GTPγS resists hydrolysis and so accumulates on activated G proteins.

`Cc1cc2c(OC[C@@H](O)CN3C[C@@H]4CC=CC[C@H]3CN4c3ccc4ccccc4c3)cccc2[nH]1`: the “h5HT1A Antagonist pIC50” value was 6.18 and 5.72.
